No constants are given. Whether binding was seen depends on the method and setting. In cells and extracts the contact can be indirect. Some binding calls cover weakened binding; strength is not graded here. Where a sequence is shown, tags or fusion partners need not be part of it.
T1: myc-xDvl2 (Xenopus) (UniProt P51142)
T1 sequence: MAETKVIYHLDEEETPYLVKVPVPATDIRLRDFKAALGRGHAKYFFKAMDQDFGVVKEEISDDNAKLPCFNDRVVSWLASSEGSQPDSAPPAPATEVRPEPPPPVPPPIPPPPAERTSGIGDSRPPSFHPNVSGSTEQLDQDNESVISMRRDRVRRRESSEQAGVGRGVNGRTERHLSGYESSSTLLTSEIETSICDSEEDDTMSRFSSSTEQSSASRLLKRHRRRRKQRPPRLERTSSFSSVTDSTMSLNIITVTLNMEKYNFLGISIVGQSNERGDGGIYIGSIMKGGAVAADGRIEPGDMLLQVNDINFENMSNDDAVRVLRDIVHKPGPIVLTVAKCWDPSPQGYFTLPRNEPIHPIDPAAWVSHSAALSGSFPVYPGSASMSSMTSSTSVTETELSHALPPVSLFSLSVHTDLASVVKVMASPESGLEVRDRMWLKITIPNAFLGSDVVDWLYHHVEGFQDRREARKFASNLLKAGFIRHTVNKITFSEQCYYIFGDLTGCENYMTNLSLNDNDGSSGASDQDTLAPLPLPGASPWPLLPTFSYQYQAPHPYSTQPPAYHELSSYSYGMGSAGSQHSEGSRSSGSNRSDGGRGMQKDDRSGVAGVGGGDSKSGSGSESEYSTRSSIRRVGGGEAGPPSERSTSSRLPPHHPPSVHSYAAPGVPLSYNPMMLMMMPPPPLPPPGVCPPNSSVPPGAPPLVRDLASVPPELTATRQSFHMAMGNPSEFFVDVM

Chains of the proteins cited; added tags and fusions are not shown.
UniProt Q684P5: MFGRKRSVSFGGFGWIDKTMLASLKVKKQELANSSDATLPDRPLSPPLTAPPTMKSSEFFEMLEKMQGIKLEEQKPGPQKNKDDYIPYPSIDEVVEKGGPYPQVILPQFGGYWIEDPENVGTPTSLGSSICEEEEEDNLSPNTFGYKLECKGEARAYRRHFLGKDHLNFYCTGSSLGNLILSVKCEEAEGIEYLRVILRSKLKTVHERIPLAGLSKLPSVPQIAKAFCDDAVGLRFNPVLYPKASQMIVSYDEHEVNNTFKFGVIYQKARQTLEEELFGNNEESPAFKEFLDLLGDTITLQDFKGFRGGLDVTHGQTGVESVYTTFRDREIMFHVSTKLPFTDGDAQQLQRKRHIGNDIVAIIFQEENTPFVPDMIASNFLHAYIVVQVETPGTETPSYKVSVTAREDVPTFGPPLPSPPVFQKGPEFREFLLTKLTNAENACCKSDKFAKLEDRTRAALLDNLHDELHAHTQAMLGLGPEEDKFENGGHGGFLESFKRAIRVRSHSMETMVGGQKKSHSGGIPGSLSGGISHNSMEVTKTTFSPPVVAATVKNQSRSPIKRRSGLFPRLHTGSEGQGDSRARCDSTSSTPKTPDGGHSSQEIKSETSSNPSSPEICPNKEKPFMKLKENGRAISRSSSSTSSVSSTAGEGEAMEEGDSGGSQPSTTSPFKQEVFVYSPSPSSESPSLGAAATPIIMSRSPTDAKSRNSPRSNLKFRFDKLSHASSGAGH
UniProt P49674: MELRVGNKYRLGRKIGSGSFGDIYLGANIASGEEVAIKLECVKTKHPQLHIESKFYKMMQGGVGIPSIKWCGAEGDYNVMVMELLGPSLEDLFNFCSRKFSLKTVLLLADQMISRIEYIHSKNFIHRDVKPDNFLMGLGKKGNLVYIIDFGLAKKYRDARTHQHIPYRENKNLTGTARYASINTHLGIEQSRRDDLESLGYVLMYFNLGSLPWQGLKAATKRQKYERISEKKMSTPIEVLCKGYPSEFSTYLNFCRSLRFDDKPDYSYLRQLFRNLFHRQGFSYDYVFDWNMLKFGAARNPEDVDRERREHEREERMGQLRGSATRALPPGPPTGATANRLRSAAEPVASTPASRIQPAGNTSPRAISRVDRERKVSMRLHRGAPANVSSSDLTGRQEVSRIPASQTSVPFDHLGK


Legend:
myc-xDvl2 (Xenopus) = target: T1, myc-xDvl2 (Xenopus); assay: co-IP; MDCK cells transfected 24 h; lysis buffer 50 mM Tris pH 7.5, 150 mM NaCl, 1 mM EDTA, 0.5% NP40; IP with Flag M2, GFP or myc antibody and protein G sepharose, or Flag M2 beads; Western blot
hRap1GAP2-Flag (human) = hRap1GAP2-Flag (human) (UniProt Q684P5); assay: as above

| binding (myc-xDvl2 (Xenopus)) | binding (hRap1GAP2-Flag (human)) | Molecule |
| --- | --- | --- |
| binds |  | hCK1ε (from UniProt P49674 1-416) (enzyme) |
|  | binds | myc-xDvl2 (protein, UniProt P51142 1-736) MAETKVIYHLDEEETPYLVKVPVPATDIRLRDFKAALGRGHAKYFFKAMDQDFGVVKEEISDDNAKLPCFNDRVVSWLASSEGSQPDSAPPAPATEVRPEPPPPVPPPIPPPPAERTSGIGDSRPPSFHPNVSGSTEQLDQDNESVISMRRDRVRRRESSEQAGVGRGVNGRTERHLSGYESSSTLLTSEIETSICDSEEDDTMSRFSSSTEQSSASRLLKRHRRRRKQRPPRLERTSSFSSVTDSTMSLNIITVTLNMEKYNFLGISIVGQSNERGDGGIYIGSIMKGGAVAADGRIEPGDMLLQVNDINFENMSNDDAVRVLRDIVHKPGPIVLTVAKCWDPSPQGYFTLPRNEPIHPIDPAAWVSHSAALSGSFPVYPGSASMSSMTSSTSVTETELSHALPPVSLFSLSVHTDLASVVKVMASPESGLEVRDRMWLKITIPNAFLGSDVVDWLYHHVEGFQDRREARKFASNLLKAGFIRHTVNKITFSEQCYYIFGDLTGCENYMTNLSLNDNDGSSGASDQDTLAPLPLPGASPWPLLPTFSYQYQAPHPYSTQPPAYHELSSYSYGMGSAGSQHSEGSRSSGSNRSDGGRGMQKDDRSGVAGVGGGDSKSGSGSESEYSTRSSIRRVGGGEAGPPSERSTSSRLPPHHPPSVHSYAAPGVPLSYNPMMLMMMPPPPLPPPGVCPPNSSVPPGAPPLVRDLASVPPELTATRQSFHMAMGNPSEFFVDVM |

From article PMC11576107
